This assay addresses TGNap1-YFP (Arabidopsis thaliana) (UniProt F4KCQ2). Nature of the assay: affinity purification with mass spectrometry; extract of 2-week-old Arabidopsis seedlings overexpressing TGNap1-YFP; anti-GFP serum on Dynabeads Protein A; LC/MS/MS; untransformed Col-0 as control.

Amino acid sequences for entries named in this document (tags omitted). A change or cut given only in a name is not applied to a line headed by its entry.
UniProt O23654: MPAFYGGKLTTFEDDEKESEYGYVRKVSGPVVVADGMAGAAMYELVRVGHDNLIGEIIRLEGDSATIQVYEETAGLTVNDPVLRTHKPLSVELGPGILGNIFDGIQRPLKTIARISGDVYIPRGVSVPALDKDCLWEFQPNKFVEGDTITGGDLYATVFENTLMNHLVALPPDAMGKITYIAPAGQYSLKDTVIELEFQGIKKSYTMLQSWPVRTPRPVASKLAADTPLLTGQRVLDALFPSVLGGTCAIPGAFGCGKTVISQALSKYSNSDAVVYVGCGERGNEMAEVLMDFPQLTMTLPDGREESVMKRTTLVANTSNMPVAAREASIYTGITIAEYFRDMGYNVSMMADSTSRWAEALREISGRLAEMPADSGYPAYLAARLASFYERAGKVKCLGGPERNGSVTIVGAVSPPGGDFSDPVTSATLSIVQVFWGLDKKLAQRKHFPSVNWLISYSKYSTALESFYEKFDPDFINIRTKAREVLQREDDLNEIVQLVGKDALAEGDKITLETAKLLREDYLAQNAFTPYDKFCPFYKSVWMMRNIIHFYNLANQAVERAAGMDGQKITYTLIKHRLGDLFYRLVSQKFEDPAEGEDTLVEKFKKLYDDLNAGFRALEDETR
UniProt Q0WNJ6: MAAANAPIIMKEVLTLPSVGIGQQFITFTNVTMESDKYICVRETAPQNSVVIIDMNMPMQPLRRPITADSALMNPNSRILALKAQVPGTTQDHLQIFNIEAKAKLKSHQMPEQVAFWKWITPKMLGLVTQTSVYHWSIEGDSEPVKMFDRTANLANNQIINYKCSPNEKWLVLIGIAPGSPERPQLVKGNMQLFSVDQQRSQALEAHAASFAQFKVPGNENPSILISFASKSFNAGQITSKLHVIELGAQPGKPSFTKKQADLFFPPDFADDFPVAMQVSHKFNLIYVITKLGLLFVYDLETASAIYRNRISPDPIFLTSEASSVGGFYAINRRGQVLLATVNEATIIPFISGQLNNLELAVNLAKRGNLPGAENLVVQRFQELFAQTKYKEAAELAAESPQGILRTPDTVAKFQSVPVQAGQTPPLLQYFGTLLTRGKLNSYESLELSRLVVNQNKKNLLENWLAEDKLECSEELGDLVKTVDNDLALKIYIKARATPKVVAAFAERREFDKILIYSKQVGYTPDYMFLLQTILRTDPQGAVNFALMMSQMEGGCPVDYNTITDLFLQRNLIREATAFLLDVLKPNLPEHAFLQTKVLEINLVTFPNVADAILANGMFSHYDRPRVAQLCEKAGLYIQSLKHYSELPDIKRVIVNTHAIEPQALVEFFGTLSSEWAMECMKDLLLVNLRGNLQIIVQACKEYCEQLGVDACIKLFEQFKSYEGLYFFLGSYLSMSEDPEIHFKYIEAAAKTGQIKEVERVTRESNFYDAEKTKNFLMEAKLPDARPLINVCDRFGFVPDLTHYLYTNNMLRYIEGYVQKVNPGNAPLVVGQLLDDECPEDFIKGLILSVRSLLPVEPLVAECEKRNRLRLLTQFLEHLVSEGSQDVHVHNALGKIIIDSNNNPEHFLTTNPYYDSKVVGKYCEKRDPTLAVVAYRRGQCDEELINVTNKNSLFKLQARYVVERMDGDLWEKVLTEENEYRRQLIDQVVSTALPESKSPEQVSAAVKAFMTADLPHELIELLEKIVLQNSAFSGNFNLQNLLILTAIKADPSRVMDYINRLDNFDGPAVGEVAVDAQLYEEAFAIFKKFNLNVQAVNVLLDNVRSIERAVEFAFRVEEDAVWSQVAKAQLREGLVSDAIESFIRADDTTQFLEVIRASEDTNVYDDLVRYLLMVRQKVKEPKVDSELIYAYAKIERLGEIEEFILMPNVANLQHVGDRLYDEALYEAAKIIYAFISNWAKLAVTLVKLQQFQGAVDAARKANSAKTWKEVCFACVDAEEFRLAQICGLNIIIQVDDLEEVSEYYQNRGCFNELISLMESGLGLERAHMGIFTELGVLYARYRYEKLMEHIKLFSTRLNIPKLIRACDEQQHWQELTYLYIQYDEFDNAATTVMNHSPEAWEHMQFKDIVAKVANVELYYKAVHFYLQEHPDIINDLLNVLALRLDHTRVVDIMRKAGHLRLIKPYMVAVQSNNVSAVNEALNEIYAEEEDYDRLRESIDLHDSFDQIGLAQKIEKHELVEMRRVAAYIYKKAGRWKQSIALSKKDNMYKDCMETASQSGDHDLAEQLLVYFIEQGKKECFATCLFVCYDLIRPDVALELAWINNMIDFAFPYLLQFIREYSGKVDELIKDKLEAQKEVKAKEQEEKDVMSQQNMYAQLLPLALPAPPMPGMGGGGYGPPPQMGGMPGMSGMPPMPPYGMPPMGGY

No constants are given. Whether binding was seen depends on the method and setting. In cells and extracts the contact can be indirect. A yes stands for co-enrichment or nearness to the bait. Other partners may have been found.

On to “vacuolar ATP synthase subunit A (from UniProt O23654 1-623)”, for which the binding result was “binds”. Turning to “clathrin heavy chain (CHC) (from UniProt Q0WNJ6)”, the binding entry is “binds”.

The record behind these values is PMC6294250.
